The nature of data set [1]: Naphthalene derivatives reacting with Fast Garnet GBC chromogenic indicator laminae in test devices (Experiment XIV). The following applies: naphthalene derivative lamina (from 5 mM solution) and Fast Garnet GBC lamina in test device, water added.
Data set [2] in a line: Fast Garnet GBC indicator laminae detecting the reporter group 2-naphthylamine (Experiment I). As to conditions: for Fast Garnet Color Solid Reagent: color after 5 minutes, duplicates. Details: key to Fast Garnet Color Solid Reagent: -: no red color formation; +/-: possible red color formation; +: clearly visible red color formation; ++: extremely intense red color formation.

Data set [3] can be described thus: Fast Garnet GBC indicator solution detecting the reporter group 2-naphthylamine (Experiment I). Details: key to Fast Garnet Color Liquid Reagent: -: no red color formation; +/-: possible red color formation; +: clearly visible red color formation; ++: extremely intense red color formation. The following applies: for Fast Garnet Color Liquid Reagent: color after 5 minutes, duplicates.

Two molecules from patent EP0791071B1, “ASSAY FOR PROLINE IMINOPEPTIDASE AND OTHER HYDROLYTIC ACTIVITIES” (LITMUS CONCEPTS, INC., priority 1994, dated 1996) can be followed below.

6-amino-naphthalene sulfonic acid: in data set [1], the “COLOR SCORE” value stood at 0.
For the molecule `Nc1ccc2ccccc2c1` [2-naphthylamine], the “Fast Garnet Color Solid Reagent” value in data set [2] (0.15 µg Naphthylamine) is given as “-”; in data set [2] (0.3 µg Naphthylamine), “+”; in data set [2] (0.6 µg Naphthylamine), “+”; in data set [2] (1.25 µg Naphthylamine), “+”; in data set [2] (2.5 µg Naphthylamine), “+”. Besides, the “concentration that produced a clearly detectable red color, no color at lower concentrations” value in data set [2] (Fast Garnet GBC chromogenic indicator laminae) is listed as 0.3 micrograms/100 microliters; in data set [3] (Fast Garnet GBC chromogenic liquid reagent) it was 1.25 micrograms/100 microliters. Also, the “Fast Garnet Color Liquid Reagent” value in data set [3] (0.15 µg Naphthylamine) is recorded as “-”; in data set [3] (0.3 µg Naphthylamine) it was “-”; in data set [3] (0.6 µg Naphthylamine) it was “-”; in data set [3] (1.25 µg Naphthylamine), “+”; in data set [3] (2.5 µg Naphthylamine), “+”.
